Test results from the supplement of paper PMC6078165.

Test system: HCC1143
Assay: relative JC-1 red fluorescence (viability) vs pre-drug, coculture with fibroblast (fraction); higher = more viable cancer cells
Method: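 JC-1 labelled TNBC cells cocultured 1:1 (1,500 cells each) with CellTrace Violet stained primary or stromal fibroblasts in 384-well plates in FluoroBrite medium, treated with one of 42 anticancer drugs at 0.1, 1, 10 or 100 uM. JC-1 red fluorescence (mitochondrial integrity in cancer cells only) was read by plate reader every 8 h for 72 h. Values are normalised to each well's pre-drug value. The stock of one drug was tenfold lower, so its dose labels may be too high.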

CC[C@]1(O)C[C@@H]2CN(CCc3c([nH]c4ccccc34)[C@@](C(=O)OC)(c3cc4c(cc3OC)N(C)[C@H]3[C@@](O)(C(=O)OC)[C@H](OC(C)=O)[C@]5(CC)C=CCN6CC[C@]43[C@@H]65)C2)C1 [Vinblastine]
relative JC-1 red fluorescence
Details | 8 h | 16 h | 24 h | 32 h | 40 h | 48 h | 56 h | 64 h | 72 h
0.1 µM, coculture fibroblast: C12385 | 0.825 | 0.767 | 0.718 | 0.669 | 0.61 | 0.583 | 0.554 | 0.518 | 0.509
0.1 µM, coculture fibroblast: H6013 | 0.797 | 0.788 | 0.768 | 0.773 | 0.739 | 0.738 | 0.725 | 0.717 | 0.687
0.1 µM, coculture fibroblast: H6019 | 0.816 | 0.769 | 0.742 | 0.7 | 0.668 | 0.658 | 0.623 | 0.596 | 0.578
0.1 µM, coculture fibroblast: H6076 | 0.8142 | 0.808 | 0.7769 | 0.7408 | 0.69112 | 0.681 | 0.664 | 0.642 | 0.6581
0.1 µM, coculture fibroblast: H6231 | 0.866 | 0.853 | 0.795 | 0.696 | 0.701 | 0.669 | 0.621 | 0.583 | 0.565
0.1 µM, coculture fibroblast: HADF | 0.749 | 0.703 | 0.667 | 0.654 | 0.582 | 0.57 | 0.548 | 0.536 | 0.50784
0.1 µM, coculture fibroblast: HCFa | 0.769 | 0.705 | 0.672 | 0.642 | 0.567 | 0.548 | 0.508 | 0.474 | 0.448
0.1 µM, coculture fibroblast: HCPF | 0.798 | 0.788 | 0.725 | 0.659 | 0.6393 | 0.6137 | 0.5815 | 0.552 | 0.548
0.1 µM, coculture fibroblast: HHSteC | 0.831 | 0.765 | 0.73 | 0.692 | 0.619 | 0.591 | 0.54 | 0.516 | 0.474
0.1 µM, coculture fibroblast: HMF | 0.827 | 0.8091 | 0.734 | 0.698 | 0.637 | 0.605 | 0.571 | 0.544 | 0.526
0.1 µM, coculture fibroblast: HPFa | 0.8862 | 0.807 | 0.781 | 0.687 | 0.639 | 0.61 | 0.56 | 0.532 | 0.515
0.1 µM, coculture fibroblast: HUF | 0.869 | 0.808 | 0.764 | 0.71 | 0.657 | 0.633 | 0.59 | 0.564 | 0.546
0.1 µM, coculture fibroblast: Hs5 | 0.861 | 0.866 | 0.829 | 0.81 | 0.748 | 0.707 | 0.674 | 0.658 | 0.656
0.1 µM, coculture fibroblast: Hs27A | 0.731 | 0.656 | 0.618 | 0.62 | 0.531 | 0.529 | 0.5 | 0.485 | 0.449
0.1 µM, coculture fibroblast: Hs343T | 0.818 | 0.84 | 0.778 | 0.71 | 0.6676 | 0.618 | 0.565 | 0.54 | 0.518
0.1 µM, coculture fibroblast: WS1 | 0.851 | 0.793 | 0.743 | 0.676 | 0.615 | 0.581 | 0.539 | 0.524 | 0.506
1 µM, coculture fibroblast: C12385 | 0.8399 | 0.759 | 0.717 | 0.663 | 0.607 | 0.592 | 0.57 | 0.548 | 0.547
1 µM, coculture fibroblast: H6013 | 0.755 | 0.716 | 0.685 | 0.687 | 0.641 | 0.639 | 0.627 | 0.626 | 0.604
1 µM, coculture fibroblast: H6019 | 0.866 | 0.838 | 0.781 | 0.719 | 0.675 | 0.662 | 0.618 | 0.59 | 0.566
1 µM, coculture fibroblast: H6076 | 0.7848 | 0.755 | 0.739 | 0.7228 | 0.6664 | 0.669 | 0.6424 | 0.629 | 0.655
1 µM, coculture fibroblast: H6231 | 0.837 | 0.844 | 0.784 | 0.659 | 0.677 | 0.64 | 0.598 | 0.564 | 0.546
1 µM, coculture fibroblast: HADF | 0.769 | 0.753 | 0.739 | 0.75 | 0.692 | 0.695 | 0.684 | 0.684 | 0.675
1 µM, coculture fibroblast: HCFa | 0.7594 | 0.701 | 0.653 | 0.629 | 0.5645 | 0.545 | 0.5128 | 0.4864 | 0.4662
1 µM, coculture fibroblast: HCPF | 0.815 | 0.8154 | 0.761 | 0.6655 | 0.679 | 0.652 | 0.615 | 0.586 | 0.586
1 µM, coculture fibroblast: HHSteC | 0.8177 | 0.768 | 0.734 | 0.703 | 0.651 | 0.639 | 0.608 | 0.581 | 0.532
1 µM, coculture fibroblast: HMF | 0.787 | 0.8025 | 0.7609 | 0.711 | 0.675 | 0.643 | 0.602 | 0.58 | 0.566
1 µM, coculture fibroblast: HPFa | 0.905 | 0.817 | 0.786 | 0.677 | 0.625 | 0.602 | 0.555 | 0.543 | 0.529
1 µM, coculture fibroblast: HUF | 0.8805 | 0.8144 | 0.778 | 0.715 | 0.671 | 0.646 | 0.6 | 0.575 | 0.554
1 µM, coculture fibroblast: Hs5 | 0.8445 | 0.857 | 0.816 | 0.775 | 0.718 | 0.6908 | 0.6594 | 0.65 | 0.647
1 µM, coculture fibroblast: Hs27A | 0.745 | 0.678 | 0.67 | 0.7 | 0.592 | 0.593 | 0.569 | 0.564 | 0.567
1 µM, coculture fibroblast: Hs343T | 0.7964 | 0.817 | 0.774 | 0.725 | 0.679 | 0.65 | 0.621 | 0.611 | 0.615
1 µM, coculture fibroblast: WS1 | 0.8121 | 0.7439 | 0.702 | 0.6344 | 0.567 | 0.546 | 0.522 | 0.507 | –

The reference is the same well before dosing, and untreated signal decays as well.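 Fibroblast labels name human fibroblasts: mostly primary ones from tissues such as uterus (C12385, HUF), lung (H6013), bone (Hs27A), adrenal (HADF) and skin (WS1), plus mammary HMF and breast cancer-associated Hs343T. The cancer cells are basal-like or mesenchymal-like triple-negative breast cancer lines. The paper calls a changed response a hit when it shifts by more than 3x the replicate standard deviation. The tissue of the other fibroblasts is not given here.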
